In paper PMC11379071:
These are yes or no findings as the source states them, for the method shown. Binding seen in cells or lysates may run through a third protein. Some entries that bind do so weakly or less than the wild type.

Chains of the proteins cited; added tags and fusions are not shown.
UniProt P18848: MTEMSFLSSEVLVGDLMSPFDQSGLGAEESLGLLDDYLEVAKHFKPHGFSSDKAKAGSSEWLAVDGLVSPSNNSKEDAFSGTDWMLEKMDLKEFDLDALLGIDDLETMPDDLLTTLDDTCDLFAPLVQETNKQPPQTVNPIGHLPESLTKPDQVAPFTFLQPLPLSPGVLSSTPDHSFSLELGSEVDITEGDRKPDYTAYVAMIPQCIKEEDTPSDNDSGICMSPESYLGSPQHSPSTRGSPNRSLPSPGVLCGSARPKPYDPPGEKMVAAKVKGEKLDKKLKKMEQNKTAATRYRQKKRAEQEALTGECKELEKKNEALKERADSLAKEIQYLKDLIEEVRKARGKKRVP
UniProt P46937: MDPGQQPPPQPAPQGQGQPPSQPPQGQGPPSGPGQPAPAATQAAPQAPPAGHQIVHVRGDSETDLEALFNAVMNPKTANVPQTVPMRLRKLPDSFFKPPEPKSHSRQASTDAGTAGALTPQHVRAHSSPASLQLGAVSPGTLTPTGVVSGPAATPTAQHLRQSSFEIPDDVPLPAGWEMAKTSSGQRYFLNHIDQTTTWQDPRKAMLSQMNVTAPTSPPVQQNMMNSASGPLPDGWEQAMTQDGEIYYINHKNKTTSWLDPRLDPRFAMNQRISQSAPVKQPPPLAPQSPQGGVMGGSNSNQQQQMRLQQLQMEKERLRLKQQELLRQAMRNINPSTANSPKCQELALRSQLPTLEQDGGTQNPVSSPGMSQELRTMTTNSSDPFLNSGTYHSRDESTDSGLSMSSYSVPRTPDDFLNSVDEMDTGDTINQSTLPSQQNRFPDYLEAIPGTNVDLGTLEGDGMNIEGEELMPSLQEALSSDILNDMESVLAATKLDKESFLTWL

Tests used:
[1] = target: activating transcription factor 4 (ATF4) (human (endogenous in HepG2 and HUH6)) (UniProt P18848); assay: co-IP; reciprocal co-IP of endogenous YAP1 and ATF4 with anti-YAP1 and anti-ATF4 antibodies, followed by WB, in HepG2 and HUH6 cells
[2] = target: T1, YTHDF2 (human (endogenous in HepG2 and HUH6)) (UniProt Q9Y5A9); assay: co-IP; co-IP of YTHDF2 (anti-YTHDF2 antibody) with deadenylation enzymes in HepG2 and HUH6 cells, untreated or treated with RNase inhibitor
T1 sequence: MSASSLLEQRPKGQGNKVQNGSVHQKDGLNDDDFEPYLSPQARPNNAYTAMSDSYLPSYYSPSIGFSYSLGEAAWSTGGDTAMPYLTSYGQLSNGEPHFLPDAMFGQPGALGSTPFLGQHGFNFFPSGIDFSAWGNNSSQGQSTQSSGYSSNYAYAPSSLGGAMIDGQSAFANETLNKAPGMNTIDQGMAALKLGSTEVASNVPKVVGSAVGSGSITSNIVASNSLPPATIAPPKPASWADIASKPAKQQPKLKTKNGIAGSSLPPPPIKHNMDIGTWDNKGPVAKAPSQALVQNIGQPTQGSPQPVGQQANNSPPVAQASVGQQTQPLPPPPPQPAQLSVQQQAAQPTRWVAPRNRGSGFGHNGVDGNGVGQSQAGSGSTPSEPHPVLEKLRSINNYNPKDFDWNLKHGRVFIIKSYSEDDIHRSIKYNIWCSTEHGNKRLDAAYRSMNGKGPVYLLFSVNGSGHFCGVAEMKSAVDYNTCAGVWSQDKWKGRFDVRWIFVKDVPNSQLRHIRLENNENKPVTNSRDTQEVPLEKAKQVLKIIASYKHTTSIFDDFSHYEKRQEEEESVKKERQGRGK

[3] = target: T2, YTHDF2 (human (endogenous in HepG2 and HUH6)), Q9Y5A9; assay: as above; conditions: remark: other sources report otherwise
T2 chain: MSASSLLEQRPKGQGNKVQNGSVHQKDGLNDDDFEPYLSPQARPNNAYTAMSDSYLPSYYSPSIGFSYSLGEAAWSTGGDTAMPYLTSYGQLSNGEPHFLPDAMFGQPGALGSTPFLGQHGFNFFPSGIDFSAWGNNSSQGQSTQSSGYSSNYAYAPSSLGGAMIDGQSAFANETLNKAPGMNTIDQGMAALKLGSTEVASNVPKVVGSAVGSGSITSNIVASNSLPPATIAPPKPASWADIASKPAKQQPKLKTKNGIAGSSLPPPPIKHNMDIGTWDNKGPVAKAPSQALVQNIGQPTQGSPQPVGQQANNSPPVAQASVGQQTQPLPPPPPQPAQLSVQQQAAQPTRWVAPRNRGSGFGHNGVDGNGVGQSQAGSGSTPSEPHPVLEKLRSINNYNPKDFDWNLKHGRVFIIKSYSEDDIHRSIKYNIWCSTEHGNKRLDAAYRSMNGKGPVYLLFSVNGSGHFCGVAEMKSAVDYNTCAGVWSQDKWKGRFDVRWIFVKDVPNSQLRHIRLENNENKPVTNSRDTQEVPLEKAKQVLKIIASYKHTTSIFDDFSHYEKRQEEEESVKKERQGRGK

In the case of “Yes-associated protein (YAP1) (from UniProt P46937 1-504)”, the binding [1] is reported as “binds”.

B1: PARN (protein, UniProt O95453 1-639)
chain: MEIIRSNFKSNLHKVYQAIEEADFFAIDGEFSGISDGPSVSALTNGFDTPEERYQKLKKHSMDFLLFQFGLCTFKYDYTDSKYITKSFNFYVFPKPFNRSSPDVKFVCQSSSIDFLASQGFDFNKVFRNGIPYLNQEEERQLREQYDEKRSQANGAGALSYVSPNTSKCPVTIPEDQKKFIDQVVEKIEDLLQSEENKNLDLEPCTGFQRKLIYQTLSWKYPKGIHVETLETEKKERYIVISKVDEEERKRREQQKHAKEQEELNDAVGFSRVIHAIANSGKLVIGHNMLLDVMHTVHQFYCPLPADLSEFKEMTTCVFPRLLDTKLMASTQPFKDIINNTSLAELEKRLKETPFNPPKVESAEGFPSYDTASEQLHEAGYDAYITGLCFISMANYLGSFLSPPKIHVSARSKLIEPFFNKLFLMRVMDIPYLNLEGPDLQPKRDHVLHVTFPKEWKTSDLYQLFSAFGNIQISWIDDTSAFVSLSQPEQVKIAVNTSKYAESYRIQTYAEYMGRKQEEKQIKRKWTEDSWKEADSKRLNPQCIPYTLQNHYYRNNSFTAPSTVGKRNLSPSQEEAGLEDGVSGEISDTELEQTDSCAEPLSEGRKKAKKLKRMKKELSPAGSISKNSPATLFEVPDTW
In the case of B1, the binding [2] is reported as “no binding”.

B2: PAN2, Q504Q3 1-1202 (protein)
chain: MNFEGLDPGLAEYAPAMHSALDPVLDAHLNPSLLQNVELDPEGVALEALPVQESVHIMEGVYSELHSVVAEVGVPVSVSHFDLHEEMLWVGSHGGHATSFFGPALERYSSFQVNGSDDIRQIQSLENGILFLTKNNLKYMARGGLIIFDYLLDENEDMHSLLLTDSSTLLVGGLQNHIIEIDLNTVQETQKYAVETPGVTIMRQTNRFFFCGHTSGKVSLRDLRTFKVEHEFDAFSGSLSDFDVHGNLLAACGFSSRLTGLACDRFLKVYDLRMMRAITPLQVHVDPAFLRFIPTYTSRLAIISQSGQCQFCEPTGLANPADIFHVNPVGPLLMTFDVSASKQALAFGDSEGCVHLWTDSPEPSFNPYSRETEFALPCLVDSLPPLDWSQDLLPLSLIPVPLTTDTLLSDWPAANSAPAPRRAPPVDAEILRTMKKVGFIGYAPNPRTRLRNQIPYRLKESDSEFDSFSQVTESPVGREEEPHLHMVSKKYRKVTIKYSKLGLEDFDFKHYNKTLFAGLEPHIPNAYCNCMIQVLYFLEPVRCLIQNHLCQKEFCLACELGFLFHMLDLSRGDPCQGNNFLRAFRTIPEASALGLILADSDEASGKGNLARLIQRWNRFILTQLHQDMQELEIPQAYRGAGGSSFCSSGDSVIGQLFSCEMENCSLCRCGSETVRASSTLLFTLSYPDGSKSDKTGKNYDFAQVLKRSICLDQNTQAWCDTCEKYQPTIQTRNIRHLPDILVINCEVNSSKEADFWRMQAEVAFKMAVKKHGGEISKNKEFALADWKELGSPEGVLVCPSIEELKNVWLPFSIRMKMTKNKGLDVCNWTDGDEMQWGPARAEEEHGVYVYDLMATVVHILDSRTGGSLVAHIKVGETYHQRKEGVTHQQWYLFNDFLIEPIDKHEAVQFDMNWKVPAILYYVKRNLNSRYNLNIKNPIEASVLLAEASLARKQRKTHTTFIPLMLNEMPQIGDLVGLDAEFVTLNEEEAELRSDGTKSTIKPSQMSVARITCVRGQGPNEGIPFIDDYISTQEQVVDYLTQYSGIKPGDLDAKISSKHLTTLKSTYLKLRFLIDIGVKFVGHGLQKDFRVINLMVPKDQVLDTVYLFHMPRKRMISLRFLAWYFLDLKIQGETHDSIEDARTALQLYRKYLELSKNGTEPESFHKVLKGLYEKGRKMDWKVPEPEGQTSPKNAAVFSSVLAL
For B2, the binding [3] was “no binding”.
